Reference: PMC3912011
No constants are given. Whether binding was seen depends on the method and setting. In cells and extracts the contact can be indirect. These calls come from enrichment with a bait or labelling near it, and not all partners need be listed. Sequences can lack the tags named with a protein.

B1: aldehyde dehydrogenase 2 (enzyme, UniProt Q2XQV4 22-521)
chain: SAAPTQAVPAPNQQPEIFYNQIFINNEWHDAISKKTFPTVNPSTGDVICHVAEGDKEDVDRAVEAARAAFQLGSPWRRLDASDRGRLLNRLADLIERDRTYLAALETLDNGKPYVISYLVDLDMVLKCLRYYAGWADKYHGKTLPIDGDYFSYTRHEPVGVCGQIIPWNFPLLMQAWKLGPALATGNVVVMKVSEQTPLTALYVANLIKEAGFPPGVVNIVPGYGPTAGAAIASHEDVDKVAFTGSTEVGHLIQVAAGKSNLKRVTLELGGKSPNIIMSDADMDWAVEQAHFALFFNQGQCCCAGSRTFVQEDIYAEFVERSVARARSRVVGNPFDSRTEQGPQIDETQFKKILGYIKSGKEEGAKLLCGGGAAADRGYFIQPTVFGDVQDGMTIAKEEIFGPVMQILKFKTIEEVIGRANNSKYGLAAAVFTKDLDKANYLSQALQAGTVWVNCYDVFGAQSPFGGYKLSGSGRELGEYGLQAYTEVKTVTVKVPQKNS
B2: electron transfer flavoprotein subunit beta (pig liver mitochondrial matrix) (protein, UniProt Q6UAQ8 1-255)
chain: MAELRALVAVKRVIDFAVKIRVKPDRTGVVMDGVKHSMNPFCEIAVEEAVRLKEKKLVKEVIAVSCGPAQCQETIRTALAMGADRGIHVEVPAAEAHHLGPLQVARVLAKLAQKEKVDLVLLGKQAIDDDCNQTGQMTAGFLDWPQGTFASQVTLEGDKVKVEREIDGGLETLRLKLPAVVTADLRLNEPRYATLPNIMKAKKKKIEVIKAGDLGVDLTSKLSVVSVEDPPQRVAGVKVETTEDLVAKLREIGRI

target: T1, GCDH His6-fusion protein (human glutaryl-CoA dehydrogenase, mature enzyme) (human) (UniProt Q92947); experiment: affinity purification with mass spectrometry; GCDH-His6 coupled covalently to Affi-Gel 10; 1 mg pig liver mitochondrial matrix protein extract, 12 h at 4°C; wash with 50 mM Hepes pH 7.5, 5 mM KCl, 120 mM NaCl; elution with 1.5 M NaCl; LC-MS/MS of the eluate; only the target purified
T1 sequence: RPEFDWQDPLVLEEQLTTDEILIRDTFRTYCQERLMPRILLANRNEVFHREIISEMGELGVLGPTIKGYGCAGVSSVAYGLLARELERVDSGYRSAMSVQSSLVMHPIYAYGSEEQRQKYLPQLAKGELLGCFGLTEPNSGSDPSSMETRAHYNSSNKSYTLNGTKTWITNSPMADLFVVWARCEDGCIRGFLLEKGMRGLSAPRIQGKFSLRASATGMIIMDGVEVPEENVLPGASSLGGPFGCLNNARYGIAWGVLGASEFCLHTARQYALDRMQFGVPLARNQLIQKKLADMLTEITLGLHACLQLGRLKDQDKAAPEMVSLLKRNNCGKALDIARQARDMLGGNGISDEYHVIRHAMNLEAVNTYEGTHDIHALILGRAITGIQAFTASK

binding, binds:
ATP synthase subunit beta
thioredoxin-dependent peroxide reductase (enzyme)
ATP synthase subunit alpha (from UniProt P80021)
B1
B2
